Test results: the supplement of paper PMC4604168 (melanoma cell lines)
The other results are listed elsewhere or left out. Single values are uncertain, as repeats are few or missing.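 The apoptosis fraction was the count of cleaved-PARP antibody-stained nuclei relative to all DNA-stained nuclei, imaged in 1,536-well plates. Screening doses were set so most cells survived, and baseline and induced cleaved-PARP levels vary greatly across cell lines.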

test system: SkMel5; test: cleaved PARP positive nuclei fraction relative to DMSO control; melanoma cells; higher = more apoptosis; conditions: library dose: low library concentration; 72 h

Row | SMILES | cleaved PARP positive nuclei fraction
1 | CO[C@H]1C[C@@H]2CC[C@@H](C)[C@@](O)(O2)C(=O)C(=O)N2CCCC[C@H]2C(=O)O[C@H]([C@H](C)C[C@@H]2CC[C@@H](OCCO)[C@H](OC)C2)CC(=O)[C@H](C)/C=C(\C)[C@@H](O)[C@@H](OC)C(=O)[C@H](C)C[C@H](C)/C=C/C=C/C=C/1C [everolimus] + Oc1cc(-c2nc(-c3ccccc3)[nH]c2-c2ccncc2)ccc1Cl [L779450] (first compound 0.02 µM, partner dose 0.2 µM) | 156%
2 | CO[C@H]1C[C@@H]2CC[C@@H](C)[C@@](O)(O2)C(=O)C(=O)N2CCCC[C@H]2C(=O)O[C@H]([C@H](C)C[C@@H]2CC[C@@H](OCCO)[C@H](OC)C2)CC(=O)[C@H](C)/C=C(\C)[C@@H](O)[C@@H](OC)C(=O)[C@H](C)C[C@H](C)/C=C/C=C/C=C/1C [everolimus] + Cn1cncc1[C@@](N)(c1ccc(Cl)cc1)c1ccc2c(c1)c(-c1cccc(Cl)c1)cc(=O)n2C [tipifarnib] (first compound 0.02 µM, partner dose 0.01 µM) | 80.2%
3 | CO[C@H]1C[C@@H]2CC[C@@H](C)[C@@](O)(O2)C(=O)C(=O)N2CCCC[C@H]2C(=O)O[C@H]([C@H](C)C[C@@H]2CC[C@@H](OCCO)[C@H](OC)C2)CC(=O)[C@H](C)/C=C(\C)[C@@H](O)[C@@H](OC)C(=O)[C@H](C)C[C@H](C)/C=C/C=C/C=C/1C [everolimus] + NCC(=O)Nc1ccc(-n2nc(C(F)(F)F)cc2-c2ccc3c(ccc4ccccc43)c2)cc1 [OSU03012] (first compound 0.02 µM, partner dose 1 µM) | 55.1%
4 | CO[C@H]1C[C@@H]2CC[C@@H](C)[C@@](O)(O2)C(=O)C(=O)N2CCCC[C@H]2C(=O)O[C@H]([C@H](C)C[C@@H]2CC[C@@H](OCCO)[C@H](OC)C2)CC(=O)[C@H](C)/C=C(\C)[C@@H](O)[C@@H](OC)C(=O)[C@H](C)C[C@H](C)/C=C/C=C/C=C/1C [everolimus] + NC(=O)Nc1cc(-c2cccc(F)c2)sc1C(=O)N[C@H]1CCCNC1 [AZD7762] (first compound 0.02 µM, partner dose 0.02 µM) | 110%
5 | CO[C@H]1C[C@@H]2CC[C@@H](C)[C@@](O)(O2)C(=O)C(=O)N2CCCC[C@H]2C(=O)O[C@H]([C@H](C)C[C@@H]2CC[C@@H](OCCO)[C@H](OC)C2)CC(=O)[C@H](C)/C=C(\C)[C@@H](O)[C@@H](OC)C(=O)[C@H](C)C[C@H](C)/C=C/C=C/C=C/1C [everolimus] + O=C(Nc1ccccc1)c1cc([N+](=O)[O-])ccc1Cl [GW9662] (first compound 0.02 µM, partner dose 2 µM) | 68.6%
6 | CO[C@H]1C[C@@H]2CC[C@@H](C)[C@@](O)(O2)C(=O)C(=O)N2CCCC[C@H]2C(=O)O[C@H]([C@H](C)C[C@@H]2CC[C@@H](OCCO)[C@H](OC)C2)CC(=O)[C@H](C)/C=C(\C)[C@@H](O)[C@@H](OC)C(=O)[C@H](C)C[C@H](C)/C=C/C=C/C=C/1C [everolimus] + O=C1NC(=O)/C(=C/c2ccc(-c3ccc(F)cc3O)o2)S1 [AS252424] (first compound 0.02 µM, partner dose 1 µM) | 64.2%
7 | CO[C@H]1C[C@@H]2CC[C@@H](C)[C@@](O)(O2)C(=O)C(=O)N2CCCC[C@H]2C(=O)O[C@H]([C@H](C)C[C@@H]2CC[C@@H](OCCO)[C@H](OC)C2)CC(=O)[C@H](C)/C=C(\C)[C@@H](O)[C@@H](OC)C(=O)[C@H](C)C[C@H](C)/C=C/C=C/C=C/1C [everolimus] + O=C(CCCCCCC(=O)Nc1ccccc1)NO [vorinostat] (first compound 0.02 µM, partner dose 0.08 µM) | 224%

test system: UACC257; test: as above; conditions: library dose: low library concentration; 72 h

Row | SMILES | cleaved PARP positive nuclei fraction
8 | CO[C@H]1C[C@@H]2CC[C@@H](C)[C@@](O)(O2)C(=O)C(=O)N2CCCC[C@H]2C(=O)O[C@H]([C@H](C)C[C@@H]2CC[C@@H](OCCO)[C@H](OC)C2)CC(=O)[C@H](C)/C=C(\C)[C@@H](O)[C@@H](OC)C(=O)[C@H](C)C[C@H](C)/C=C/C=C/C=C/1C [everolimus] + c1cc(-c2cnn3cc(-c4ccc(OCCN5CCCCC5)cc4)cnc23)ccn1 [Dorsomorphin] (first compound 0.02 µM, partner dose 0.4 µM) | 580%
9 | CO[C@H]1C[C@@H]2CC[C@@H](C)[C@@](O)(O2)C(=O)C(=O)N2CCCC[C@H]2C(=O)O[C@H]([C@H](C)C[C@@H]2CC[C@@H](OCCO)[C@H](OC)C2)CC(=O)[C@H](C)/C=C(\C)[C@@H](O)[C@@H](OC)C(=O)[C@H](C)C[C@H](C)/C=C/C=C/C=C/1C [everolimus] + O=C(Nc1cccc(Cl)c1)Nc1ncc(CCNc2ncnc3ccsc23)s1 [SNS314] (first compound 0.02 µM, partner dose 0.0008 µM) | 468%
10 | CO[C@H]1C[C@@H]2CC[C@@H](C)[C@@](O)(O2)C(=O)C(=O)N2CCCC[C@H]2C(=O)O[C@H]([C@H](C)C[C@@H]2CC[C@@H](OCCO)[C@H](OC)C2)CC(=O)[C@H](C)/C=C(\C)[C@@H](O)[C@@H](OC)C(=O)[C@H](C)C[C@H](C)/C=C/C=C/C=C/1C [everolimus] + Oc1nc(-c2ccc(C(F)(F)F)cc2)nc2c1CSCC2 [XAV939] (first compound 0.02 µM, partner dose 2 µM) | 431%
11 | CO[C@H]1C[C@@H]2CC[C@@H](C)[C@@](O)(O2)C(=O)C(=O)N2CCCC[C@H]2C(=O)O[C@H]([C@H](C)C[C@@H]2CC[C@@H](OCCO)[C@H](OC)C2)CC(=O)[C@H](C)/C=C(\C)[C@@H](O)[C@@H](OC)C(=O)[C@H](C)C[C@H](C)/C=C/C=C/C=C/1C [everolimus] + CC1(C)NC(=O)N(c2ccc([N+](=O)[O-])c(C(F)(F)F)c2)C1=O [nilutamide] (first compound 0.02 µM, partner dose 1 µM) | 521%
12 | CO[C@H]1C[C@@H]2CC[C@@H](C)[C@@](O)(O2)C(=O)C(=O)N2CCCC[C@H]2C(=O)O[C@H]([C@H](C)C[C@@H]2CC[C@@H](OCCO)[C@H](OC)C2)CC(=O)[C@H](C)/C=C(\C)[C@@H](O)[C@@H](OC)C(=O)[C@H](C)C[C@H](C)/C=C/C=C/C=C/1C [everolimus] + C=CCn1c(=O)c2cnc(Nc3ccc(N4CCN(C)CC4)cc3)nc2n1-c1cccc(C(C)(C)O)n1 [MK1775] (first compound 0.02 µM, partner dose 0.02 µM) | 225%
13 | CO[C@H]1C[C@@H]2CC[C@@H](C)[C@@](O)(O2)C(=O)C(=O)N2CCCC[C@H]2C(=O)O[C@H]([C@H](C)C[C@@H]2CC[C@@H](OCCO)[C@H](OC)C2)CC(=O)[C@H](C)/C=C(\C)[C@@H](O)[C@@H](OC)C(=O)[C@H](C)C[C@H](C)/C=C/C=C/C=C/1C [everolimus] + CC(C)(C)c1cnc(CSc2cnc(NC(=O)C3CCNCC3)s2)o1 [SNS-032] (first compound 0.02 µM, partner dose 0.01 µM) | 303%
14 | CO[C@H]1C[C@@H]2CC[C@@H](C)[C@@](O)(O2)C(=O)C(=O)N2CCCC[C@H]2C(=O)O[C@H]([C@H](C)C[C@@H]2CC[C@@H](OCCO)[C@H](OC)C2)CC(=O)[C@H](C)/C=C(\C)[C@@H](O)[C@@H](OC)C(=O)[C@H](C)C[C@H](C)/C=C/C=C/C=C/1C [everolimus] + Cc1cc([N+](=O)[O-])ccc1NS(=O)(=O)c1cc(Cl)ccc1Cl [FH535] (first compound 0.02 µM, partner dose 1 µM) | 94.4%
15 | CO[C@H]1C[C@@H]2CC[C@@H](C)[C@@](O)(O2)C(=O)C(=O)N2CCCC[C@H]2C(=O)O[C@H]([C@H](C)C[C@@H]2CC[C@@H](OCCO)[C@H](OC)C2)CC(=O)[C@H](C)/C=C(\C)[C@@H](O)[C@@H](OC)C(=O)[C@H](C)C[C@H](C)/C=C/C=C/C=C/1C [everolimus] + O=C(O)c1ccc(-c2c[nH]c3ncc(-c4ccccc4)cc23)cc1C1CCCC1 [GSK650394] (first compound 0.02 µM, partner dose 0.16 µM) | 553%
16 | CO[C@H]1C[C@@H]2CC[C@@H](C)[C@@](O)(O2)C(=O)C(=O)N2CCCC[C@H]2C(=O)O[C@H]([C@H](C)C[C@@H]2CC[C@@H](OCCO)[C@H](OC)C2)CC(=O)[C@H](C)/C=C(\C)[C@@H](O)[C@@H](OC)C(=O)[C@H](C)C[C@H](C)/C=C/C=C/C=C/1C [everolimus] + COc1ccc(COc2ccc(Cc3cnc(N)nc3N)cc2OC)cc1 [GW2580] (first compound 0.02 µM, partner dose 1 µM) | 150%
17 | CO[C@H]1C[C@@H]2CC[C@@H](C)[C@@](O)(O2)C(=O)C(=O)N2CCCC[C@H]2C(=O)O[C@H]([C@H](C)C[C@@H]2CC[C@@H](OCCO)[C@H](OC)C2)CC(=O)[C@H](C)/C=C(\C)[C@@H](O)[C@@H](OC)C(=O)[C@H](C)C[C@H](C)/C=C/C=C/C=C/1C [everolimus] + O=S(=O)(c1ccccc1)N(CC(F)(F)F)c1ccc(C(O)(C(F)(F)F)C(F)(F)F)cc1 [T0901317] (first compound 0.02 µM, partner dose 1.4 µM) | 144%
18 | CO[C@H]1C[C@@H]2CC[C@@H](C)[C@@](O)(O2)C(=O)C(=O)N2CCCC[C@H]2C(=O)O[C@H]([C@H](C)C[C@@H]2CC[C@@H](OCCO)[C@H](OC)C2)CC(=O)[C@H](C)/C=C(\C)[C@@H](O)[C@@H](OC)C(=O)[C@H](C)C[C@H](C)/C=C/C=C/C=C/1C [everolimus] + COc1cc(Nc2ncc(F)c(Nc3ccc4c(n3)NC(=O)C(C)(C)O4)n2)cc(OC)c1OC [Tamatinib] (first compound 0.02 µM, partner dose 0.4 µM) | 215%

Quoted from the results shown for reference:
Row | SMILES | cleaved PARP positive nuclei fraction
12 | CO[C@H]1C[C@@H]2CC[C@@H](C)[C@@](O)(O2)C(=O)C(=O)N2CCCC[C@H]2C(=O)O[C@H]([C@H](C)C[C@@H]2CC[C@@H](OCCO)[C@H](OC)C2)CC(=O)[C@H](C)/C=C(\C)[C@@H](O)[C@@H](OC)C(=O)[C@H](C)C[C@H](C)/C=C/C=C/C=C/1C [everolimus] + C=CCn1c(=O)c2cnc(Nc3ccc(N4CCN(C)CC4)cc3)nc2n1-c1cccc(C(C)(C)O)n1 [MK1775] (first compound 0.02 µM, partner dose 0.02 µM) | 225%
13 | CO[C@H]1C[C@@H]2CC[C@@H](C)[C@@](O)(O2)C(=O)C(=O)N2CCCC[C@H]2C(=O)O[C@H]([C@H](C)C[C@@H]2CC[C@@H](OCCO)[C@H](OC)C2)CC(=O)[C@H](C)/C=C(\C)[C@@H](O)[C@@H](OC)C(=O)[C@H](C)C[C@H](C)/C=C/C=C/C=C/1C [everolimus] + CC(C)(C)c1cnc(CSc2cnc(NC(=O)C3CCNCC3)s2)o1 [SNS-032] (first compound 0.02 µM, partner dose 0.01 µM) | 303%
14 | CO[C@H]1C[C@@H]2CC[C@@H](C)[C@@](O)(O2)C(=O)C(=O)N2CCCC[C@H]2C(=O)O[C@H]([C@H](C)C[C@@H]2CC[C@@H](OCCO)[C@H](OC)C2)CC(=O)[C@H](C)/C=C(\C)[C@@H](O)[C@@H](OC)C(=O)[C@H](C)C[C@H](C)/C=C/C=C/C=C/1C [everolimus] + Cc1cc([N+](=O)[O-])ccc1NS(=O)(=O)c1cc(Cl)ccc1Cl [FH535] (first compound 0.02 µM, partner dose 1 µM) | 94.4%
